Laboratory results taken from publication PMC4729438.
These are yes or no findings as the source states them, for the method shown. In cells and extracts the contact can be indirect. Some results given as binding are weak or reduced against the parent protein; the word gives no strength. For some of these results: Where a sequence is shown, tags or fusion partners need not be part of it.

The chains behind the UniProt entries cited, without tags or fusion partners. Residues count along the entry.
UniProt Q13242: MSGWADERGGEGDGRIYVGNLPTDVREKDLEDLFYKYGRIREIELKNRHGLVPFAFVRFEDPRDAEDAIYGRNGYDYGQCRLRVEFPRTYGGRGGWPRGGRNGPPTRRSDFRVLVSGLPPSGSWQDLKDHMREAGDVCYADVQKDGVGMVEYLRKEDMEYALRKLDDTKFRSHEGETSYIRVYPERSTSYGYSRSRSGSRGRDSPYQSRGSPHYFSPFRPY
UniProt Q07021, residues 74-282: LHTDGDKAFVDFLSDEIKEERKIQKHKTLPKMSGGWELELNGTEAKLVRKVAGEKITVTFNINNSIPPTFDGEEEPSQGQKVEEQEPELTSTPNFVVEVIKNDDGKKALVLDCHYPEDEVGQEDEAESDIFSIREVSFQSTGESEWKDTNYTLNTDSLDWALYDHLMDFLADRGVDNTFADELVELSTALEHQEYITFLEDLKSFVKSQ
UniProt P35637: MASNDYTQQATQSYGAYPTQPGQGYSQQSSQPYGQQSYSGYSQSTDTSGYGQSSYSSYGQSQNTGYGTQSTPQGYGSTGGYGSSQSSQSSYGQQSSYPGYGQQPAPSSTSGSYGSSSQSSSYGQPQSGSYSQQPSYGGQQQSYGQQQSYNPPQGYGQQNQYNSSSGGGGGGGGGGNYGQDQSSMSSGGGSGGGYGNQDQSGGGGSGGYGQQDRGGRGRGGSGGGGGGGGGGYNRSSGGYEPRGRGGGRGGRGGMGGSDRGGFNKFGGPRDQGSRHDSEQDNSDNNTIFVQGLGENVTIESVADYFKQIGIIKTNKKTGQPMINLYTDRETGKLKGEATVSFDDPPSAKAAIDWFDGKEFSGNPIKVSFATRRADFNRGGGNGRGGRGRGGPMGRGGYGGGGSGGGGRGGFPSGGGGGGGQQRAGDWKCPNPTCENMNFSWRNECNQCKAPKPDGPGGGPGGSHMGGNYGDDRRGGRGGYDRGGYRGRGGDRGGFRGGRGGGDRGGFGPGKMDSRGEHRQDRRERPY

How the values were obtained:
[1] = target: T1, Myc-DKK-tagged-human LIM and cysteine-rich domains 1 (pCMV6.LMCD1) (human) (UniProt Q9NZU5); test: co-IP; HEK293 cells transfected with V5-tagged DUX4 constructs, alone or with Myc-DDK-tagged partners; lysate in 137 mM NaCl, 10 mM Tris-HCl pH 7.4, 1% NP40; IP with V5- or Myc-antibody agarose 16-20 h at 4 °C; western blot
T1 sequence: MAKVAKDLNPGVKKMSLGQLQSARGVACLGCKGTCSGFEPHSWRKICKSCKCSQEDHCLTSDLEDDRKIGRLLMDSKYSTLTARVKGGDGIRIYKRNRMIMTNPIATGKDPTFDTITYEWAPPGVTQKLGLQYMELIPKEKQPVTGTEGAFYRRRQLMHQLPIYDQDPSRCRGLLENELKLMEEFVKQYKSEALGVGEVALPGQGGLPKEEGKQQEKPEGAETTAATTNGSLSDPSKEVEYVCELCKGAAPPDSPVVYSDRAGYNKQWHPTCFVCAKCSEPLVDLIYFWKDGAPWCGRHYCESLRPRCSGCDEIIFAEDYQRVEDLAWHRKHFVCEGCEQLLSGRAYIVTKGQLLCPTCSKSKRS

[2] = target: T2, Myc-DDK-tagged-human RNA-binding motif protein 3 (pCMV6.RBM3) (human) (UniProt P98179); test: as above
T2 sequence: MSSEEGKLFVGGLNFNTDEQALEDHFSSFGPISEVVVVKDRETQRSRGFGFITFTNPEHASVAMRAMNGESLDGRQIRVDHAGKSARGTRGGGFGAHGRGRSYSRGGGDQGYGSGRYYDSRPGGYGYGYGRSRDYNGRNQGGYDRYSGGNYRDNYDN

[3] = target: Myc-DDK-tagged-human serine/arginine-rich splicing factor 9 (pCMV6.SRSF9) (human) (UniProt Q13242); test: as above
[4] = target: DUX4, endogenous in FSHD myoblasts (human (endogenous in FSHD myoblasts)) (UniProt Q9UBX2); test: proximity ligation; in situ PLA (Duolink) on fixed human myoblasts, transfected with DUX4 or DUX4c vectors (LHCN-M2) or untransfected healthy or FSHD myoblasts; mouse and rabbit primary antibodies to the two proteins
[5] = target: DUX4 expressed in transfected human myoblasts (pCIneo-DUX4 or a vector with the endogenous promoter) (human) (UniProt Q9UBX2); test: as above
[6] = target: short DUX4-V5 (DUX4 limited to the homeodomains) (human) (UniProt Q9UBX2); test: co-IP; HEK293 cells transfected with V5-tagged DUX4 constructs, alone or with Myc-DDK-tagged partners; lysate in 137 mM NaCl, 10 mM Tris-HCl pH 7.4, 1% NP40; IP with V5- or Myc-antibody agarose 16-20 h at 4 °C; western blot
[7] = target: DUX4-V5 (full length) (human) (UniProt Q9UBX2); test: as above
[8] = target: DUX4c expressed in transfected human myoblasts (pCIneo-DUX4c or pENTR-DUX4c) (human) (UniProt Q6RFH8); test: proximity ligation; in situ PLA (Duolink) on fixed human myoblasts, transfected with DUX4 or DUX4c vectors (LHCN-M2) or untransfected healthy or FSHD myoblasts; mouse and rabbit primary antibodies to the two proteins
[9] = target: GST-desmin (human) (UniProt P17661); test: pull-down; GST-desmin or GST on GSH-Sepharose 4B incubated with 35S-labeled in vitro transcription/translation products overnight at 4 °C; SDS-PAGE, autoradiography; only the target purified

Which results are given for “DUX4-V5 (full length) (from UniProt Q9UBX2 1-424)”?
binding [1]: binds; binding [2]: binds; binding [3]: binds

“desmin, endogenous in human muscle cells (from UniProt P17661 1-470)” was tested. Which binding [4] did it give?
Its binding is “binds”.

And the binding [5]?
Its binding is “binds”.

“C1QBP, endogenous in human cells (from UniProt Q07021 74-282)” was tested. Which binding [6] did it give?
The binding was “binds”.

What about the binding [7] of the same substance?
The binding was “binds”.

“FUS, endogenous in human muscle cells (from UniProt P35637 1-526)” was tested. Which binding [8] did it give?
Its binding is “binds”.

And the binding [5]?
The binding was “binds”.

“radiolabeled DUX4 (in vitro transcription/translation) (from UniProt Q9UBX2 1-424)” was tested. Which binding [9] did it give?
The binding was “binds”.
